Values quoted from earlier work, collected in PMC3264873 (Pharmaceutical Research, 2011).

Conditions: amprenavir recalculated from fosamprenavir data; ref [23]–[28]; cited from earlier work

## CC(C)OC(=O)C(C)(C)Oc1ccc(C(=O)c2ccc(Cl)cc2)cc1 [Fenofibrate]
  Imax, maximum systemic plasma concentration of the inhibitor: 29.8 µM
